Measurements published in PubChem BioAssay AID276 (DTP/NCI, 2004).
The list shows only some results of the screen, not a fair sample: it is rich in T/C values a quarter to a half above the control, in often repeated tests (any T/C) and in doses without a T/C. Other doses and runs of a compound stand elsewhere. T/C gives the treated animals as a percentage of the vehicle group. Some doses have a count of surviving animals in place of a T/C: the source holds a T/C of zero for them, seemingly a mark for toxic or unscored doses. Some survivor counts are full or nearly so, which does not show that the dose was tolerated: survival well below the control is almost never listed, so the zero probably covers shortened survival too. Counts of survivors are from the toxicity check (mostly the fifth day) where no day follows; animals may have died later. Schedules are NCI's codes, read here as Q, the interval in days (D) or hours (H), X, the number of doses. Where survival is the endpoint, this PubChem deposit counts one and a half times the control or more as active, and values a quarter to a half above the control carry no call in these data; other NCI protocols may use other cut-offs. Some doses were run more than once; their values stand side by side, smallest first.

Tested on: B6C3F1 mice, Lewis lung carcinoma iv, survival T/C
Experiment: NCI In Vivo Anticancer Drug Screen. Data for tumor model Lewis Lung Carcinoma (intravenous) in B6C3F1 mice
Conditions: T/C endpoint: median survival time, higher T/C = longer survival
Summary of the method: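 Mice carrying transplanted tumors received test compound; survival in the treated group was divided by that of the vehicle-treated control group to give the T/C value.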

[1] = dose: 200.0 mg/kg/injection, schedule: Q01DX009 (ip), vehicle: saline with Tween-80
[2] = dose: 400.0 mg/kg/injection, schedule: Q01DX009 (ip), vehicle: water
[3] = dose: 100.0 mg/kg/injection, schedule: Q01DX009 (ip), vehicle: saline
[4] = dose: 400.0 mg/kg/injection, schedule: Q01DX009 (ip), vehicle: saline with Tween-80
[5] = dose: 400.0 mg/kg/injection, schedule: Q01DX009 (ip), vehicle: distilled water + Tween-80
[6] = dose: 12.5 mg/kg/injection, schedule: Q01DX009 (ip), vehicle: saline with Tween-80
[7] = dose: 100.0 mg/kg/injection, schedule: Q01DX009 (ip), vehicle: saline with Tween-80
[8] = dose: 50.0 mg/kg/injection, schedule: Q01DX009 (ip), vehicle: saline
[9] = dose: 200.0 mg/kg/injection, schedule: Q01DX009 (ip), vehicle: saline
[10] = dose: 400.0 mg/kg/injection, schedule: Q01DX009 (ip), vehicle: saline
[11] = dose: 400.0 mg/kg/injection, schedule: Q01DX009 (ip), vehicle: suspension in saline
[12] = dose: 100.0 mg/kg/injection, schedule: Q01DX009 (ip), vehicle: Klucel (hydroxypropylcellulose) (HPC)

C[CH2][Ge]([CH2]C)[CH2]C.C[CH2][Ge]([CH2]C)[CH2]C.C[CH2][Ge]([CH2]C)[O][Ge]([CH2]C)[CH2]C
survivor count [1]: 0 of 10

O=C(O)C1CC(c2ccccc2)=NN1c1ccccc1 (centres undefined)
survivor count [2]: 0 of 10

NC(C(=O)O)c1ccc(CBr)cc1 (centres undefined)
survivor count [1]: 1 of 10

O=S(=O)(SC(S(=O)(=O)c1ccccc1)S(=O)(=O)c1ccccc1)c1ccccc1
survivor count (dose: 800.0 mg/kg/injection, schedule: Q01DX009 (ip), vehicle: Klucel (hydroxypropylcellulose) (HPC)): 5 of 10

CC1CN1P1(N2CC2C)=NP(N2CC2C)(N2CC2C)=NP(N2CC2C)(N2CC2C)=N1 (centres undefined)
survivor count [3]: 9 of 10

CCCCOCN(COCCCC)C12CC3CC(CC(C3)C1)C2
survivor count [4]: 3 of 10

CCc1nc(N)nc(N)c1-c1ccc(Cl)c(N=[N+]=[N-])c1
T/C (dose: 200.0 mg/kg/injection, schedule: Q01DX009 (ip), vehicle: distilled water + Tween-80): 127 % of control
T/C [5]: 139 % of control
survivor count [5]: 10 of 10
survivor count (dose: 800.0 mg/kg/injection, schedule: Q01DX009 (ip), vehicle: distilled water + Tween-80): 4 of 10

COc1cccc2c1C(=O)c1c(O)c3c(c(O)c1C2=O)C[C@@](O)(C(C)=O)C[C@@H]3OC1CC(N(Cc2ccccc2)Cc2ccccc2)C(O)C(C)O1 (some centres undefined)
T/C (dose: 6.0 mg/kg/injection, schedule: Q01DX009 (ip), vehicle: water): 143 % of control
T/C (dose: 12.0 mg/kg/injection, schedule: Q01DX009 (ip), vehicle: saline with Tween-80): 134 % of control
T/C (dose: 12.0 mg/kg/injection, schedule: Q01DX009 (ip), vehicle: water): 130 % of control
T/C [6]: 136 % of control
survivor count [6]: 9 of 10
survivor count (dose: 24.0 mg/kg/injection, schedule: Q01DX009 (ip), vehicle: saline with Tween-80): 10 of 10
survivor count (dose: 24.0 mg/kg/injection, schedule: Q01DX009 (ip), vehicle: water): 10 of 10
survivor count (dose: 25.0 mg/kg/injection, schedule: Q01DX009 (ip), vehicle: saline with Tween-80): 10 of 10
survivor count (dose: 48.0 mg/kg/injection, schedule: Q01DX009 (ip), vehicle: saline with Tween-80): 10 of 10
survivor count (dose: 48.0 mg/kg/injection, schedule: Q01DX009 (ip), vehicle: water): 10 of 10
survivor count (dose: 50.0 mg/kg/injection, schedule: Q01DX009 (ip), vehicle: saline with Tween-80): 8 of 10
survivor count [7]: 3 of 10

Oc1c(Cl)cc(C(c2cc(Cl)c(O)c(Cl)c2)C(c2cc(Cl)c(O)c(Cl)c2)c2cc(Cl)c(O)c(Cl)c2)cc1Cl
survivor count (dose: 400.0 mg/kg/injection, schedule: Q01DX009 (ip), vehicle: Klucel (hydroxypropylcellulose) (HPC)): 5 of 10

Nc1ncn(C2OC(CO)C(O)C2O)c(=O)n1 (centres undefined)
T/C (dose: 25.0 mg/kg/injection, schedule: Q01DX009 (ip), vehicle: saline): 131 % of control
T/C [8]: 135 % of control
T/C [3]: 129 and 133 % of control
survivor count (dose: 196.0 mg/kg/injection, schedule: Q01DX009 (ip), vehicle: saline): 10 of 10
T/C [9]: 142 % of control
survivor count (dose: 280.0 mg/kg/injection, schedule: Q01DX009 (ip), vehicle: saline): 9 of 9
survivor count [10]: 10 of 10
survivor count (dose: 571.0 mg/kg/injection, schedule: Q01DX009 (ip), vehicle: saline): 9 of 10

Cc1ccc(N)c(N)c1
survivor count [4]: 6 of 10
survivor count (dose: 800.0 mg/kg/injection, schedule: Q01DX009 (ip), vehicle: saline with Tween-80): 0 of 10

CSC(SC)=C1C(=O)NC(=O)NC1=O
survivor count [8]: 8 of 10

CCCCOCN(COCCCC)C(C)Cc1ccccc1 (centres undefined)
survivor count [4]: 3 of 10

NC1=NC(=O)N2CC12 (centres undefined)
T/C [8]: 125 % of control
survivor count [10]: 2 of 10

CC1c2ccccc2CC(CCN(C)C)c2ccccc21 (centres undefined)
survivor count [7]: 0 of 10

CN(C)c1nc(N(C)C)nc(N(C)C)n1
survivor count [4]: 0 of 10

O=C(O)CSc1c(Cl)c(=O)oc2ccc(Cl)cc12
survivor count (dose: 200.0 mg/kg/injection, schedule: Q01DX009 (ip), vehicle: Klucel (hydroxypropylcellulose) (HPC)): 7 of 10

CCN(CC)CCNc1ccc(C)c2sc3ccc(O)cc3c(=O)c12
survivor count [7]: 10 of 10
survivor count [1]: 6 of 10

CCC(C(=O)O)C(=O)O.[NH2-].[NH2-].[Pt+2]
T/C (dose: 1.56 mg/kg/injection, schedule: Q01DX009 (ip), vehicle: saline): 127 % of control
survivor count [3]: 10 of 10
survivor count [9]: 10 of 10

Cc1cc(NS(=O)(=O)c2ccc(N=Nc3cc(N=Nc4ccc(S(=O)(=O)Nc5cc(C)nc(C)n5)cc4)c4c(NC(=O)C(Cl)Cl)cccc4c3OC(=O)C(Cl)Cl)cc2)nc(C)n1 (tested in a mixture with another compound)
survivor count [11]: 8 of 10

NC(CSC(c1ccccc1)(c1ccccc1)c1ccccc1)C(=O)O (centres undefined)
survivor count [12]: 5 of 10

COC1=C(C)C(=O)C2=C(C1=O)C1C3CC4=C(C(=O)C(OC)=C(C)C4=O)C(CNC(=O)C(C)=O)N3C(C#N)C(C2)N1C (centres undefined)
T/C (dose: 2.0 mg/kg/injection, schedule: Q01DX009 (ip), vehicle: Klucel (hydroxypropylcellulose) (HPC)): 134 % of control
survivor count (dose: 4.0 mg/kg/injection, schedule: Q01DX009 (ip), vehicle: Klucel (hydroxypropylcellulose) (HPC)): 0 of 10

[Cl][Pt+2][Cl].[NH-]C1CCC1.[NH2-]
T/C (dose: 1.5 mg/kg/injection, schedule: Q01DX009 (ip), vehicle: saline): 126 % of control
T/C (dose: 12.0 mg/kg/injection, schedule: Q01DX009 (ip), vehicle: saline): 128 % of control
survivor count (dose: 24.0 mg/kg/injection, schedule: Q01DX009 (ip), vehicle: saline): 8 of 9

CCOC(=O)C1=C(C#N)C2(CCC(OCc3ccccc3)CC2)C(=O)O1 (centres undefined)
survivor count [11]: 9 of 10

CC(/C=C/c1ccccc1)=Nc1ccccc1
survivor count [4]: 8 of 10

CC(CN1CC(=O)NC(=O)C1)N1CC(=O)NC(=O)C1 (centres undefined)
T/C (dose: 64.8 mg/kg/injection, schedule: Q04DX003 (ip), vehicle: Klucel (hydroxypropylcellulose) (HPC)): 130 % of control
survivor count (dose: 500.0 mg/kg/injection, schedule: Q04DX003 (ip), vehicle: Klucel (hydroxypropylcellulose) (HPC)): 10 of 10

O=NN(CCCl)C(=O)Oc1ccc(OC(=O)N(CCCl)N=O)cc1
survivor count (dose: 6.25 mg/kg/injection, schedule: Q01DX009 (ip), vehicle: Klucel (hydroxypropylcellulose) (HPC)): 10 of 10
survivor count (dose: 8.0 mg/kg/injection, schedule: Q01DX009 (ip), vehicle: Klucel (hydroxypropylcellulose) (HPC)): 10 of 10
survivor count (dose: 12.5 mg/kg/injection, schedule: Q01DX009 (ip), vehicle: Klucel (hydroxypropylcellulose) (HPC)): 10 of 10
survivor count (dose: 25.0 mg/kg/injection, schedule: Q01DX009 (ip), vehicle: Klucel (hydroxypropylcellulose) (HPC)): 8 of 10
survivor count (dose: 50.0 mg/kg/injection, schedule: Q01DX009 (ip), vehicle: Klucel (hydroxypropylcellulose) (HPC)): 10 of 10

O=C1CN(CCN2CC(=O)N(CN3CCOCC3)C(=O)C2)CC(=O)N1CN1CCOCC1
T/C (dose: 25.0 mg/kg/injection, schedule: Q01DX009 (ip), vehicle: water): 131 % of control
T/C (dose: 50.0 mg/kg/injection, schedule: Q01DX009 (ip), vehicle: water): 130 % of control
survivor count (dose: 200.0 mg/kg/injection, schedule: Q01DX009 (ip), vehicle: water): 7 of 10
survivor count [2]: 0 of 10

CC[PH+](CC)CC[S-].CC[PH+](CC)CC[S-].[Au+].[Au+]
survivor count (dose: 40.0 mg/kg/injection, schedule: Q01DX009 (ip), vehicle: Klucel (hydroxypropylcellulose) (HPC)): 3 of 10
survivor count (dose: 80.0 mg/kg/injection, schedule: Q01DX009 (ip), vehicle: Klucel (hydroxypropylcellulose) (HPC)): 0 of 10

COc1ccc(Cl)[n+]([O-])n1
survivor count [12]: 8 of 10

CC(O)CCC(=O)c1ccoc1 (centres undefined)
survivor count (dose: 10.0 mg/kg/injection, schedule: Q03HX027 (ip), vehicle: saline): 2 of 10
